Assay results from article doi:10.1101/2020.05.08.084814.

T1: hnRNPAB (40LoVE) (Xenopus laevis (endogenous in oocytes))
T1 sequence: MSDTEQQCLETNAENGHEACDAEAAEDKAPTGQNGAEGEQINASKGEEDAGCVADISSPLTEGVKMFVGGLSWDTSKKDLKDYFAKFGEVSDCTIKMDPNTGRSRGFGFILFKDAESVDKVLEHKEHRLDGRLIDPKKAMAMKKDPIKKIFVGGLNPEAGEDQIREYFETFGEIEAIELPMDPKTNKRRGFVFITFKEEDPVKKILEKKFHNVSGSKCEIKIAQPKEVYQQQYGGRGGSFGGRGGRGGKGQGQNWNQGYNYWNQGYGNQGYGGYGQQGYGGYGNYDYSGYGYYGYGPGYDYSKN

T2: Stau1 (Staufen1) (Xenopus laevis (endogenous in oocytes)) (UniProt Q6GM35)
T2 sequence: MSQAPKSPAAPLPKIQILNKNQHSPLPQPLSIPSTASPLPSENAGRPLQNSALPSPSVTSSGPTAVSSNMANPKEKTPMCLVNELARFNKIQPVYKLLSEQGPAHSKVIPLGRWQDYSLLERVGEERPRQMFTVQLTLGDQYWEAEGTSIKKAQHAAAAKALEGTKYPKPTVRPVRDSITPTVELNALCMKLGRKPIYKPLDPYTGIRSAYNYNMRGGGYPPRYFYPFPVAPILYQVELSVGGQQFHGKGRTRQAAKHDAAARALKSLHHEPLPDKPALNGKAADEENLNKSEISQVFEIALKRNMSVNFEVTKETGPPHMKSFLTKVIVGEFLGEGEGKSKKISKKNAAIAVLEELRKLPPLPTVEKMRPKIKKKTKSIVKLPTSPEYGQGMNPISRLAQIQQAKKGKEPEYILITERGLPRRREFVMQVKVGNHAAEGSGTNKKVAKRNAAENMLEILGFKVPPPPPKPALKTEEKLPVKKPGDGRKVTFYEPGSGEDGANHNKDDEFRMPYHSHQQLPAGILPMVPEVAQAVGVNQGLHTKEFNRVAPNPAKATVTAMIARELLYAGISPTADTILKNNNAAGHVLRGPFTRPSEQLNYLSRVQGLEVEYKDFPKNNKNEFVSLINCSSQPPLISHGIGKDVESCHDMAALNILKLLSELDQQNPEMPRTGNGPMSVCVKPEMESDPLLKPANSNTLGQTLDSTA


Key:
[1] = molecular target: T1, hnRNPAB (40LoVE) (Xenopus laevis (endogenous in oocytes)); assay: affinity purification with mass spectrometry
[2] = molecular target: T2, Stau1 (Staufen1) (Xenopus laevis (endogenous in oocytes)); assay: affinity purification with mass spectrometry

binding [1] | binding [2] | Binder
binds |  | Stau1 (Staufen1) (protein, UniProt Q6GM35 1-708) MSQAPKSPAAPLPKIQILNKNQHSPLPQPLSIPSTASPLPSENAGRPLQNSALPSPSVTSSGPTAVSSNMANPKEKTPMCLVNELARFNKIQPVYKLLSEQGPAHSKVIPLGRWQDYSLLERVGEERPRQMFTVQLTLGDQYWEAEGTSIKKAQHAAAAKALEGTKYPKPTVRPVRDSITPTVELNALCMKLGRKPIYKPLDPYTGIRSAYNYNMRGGGYPPRYFYPFPVAPILYQVELSVGGQQFHGKGRTRQAAKHDAAARALKSLHHEPLPDKPALNGKAADEENLNKSEISQVFEIALKRNMSVNFEVTKETGPPHMKSFLTKVIVGEFLGEGEGKSKKISKKNAAIAVLEELRKLPPLPTVEKMRPKIKKKTKSIVKLPTSPEYGQGMNPISRLAQIQQAKKGKEPEYILITERGLPRRREFVMQVKVGNHAAEGSGTNKKVAKRNAAENMLEILGFKVPPPPPKPALKTEEKLPVKKPGDGRKVTFYEPGSGEDGANHNKDDEFRMPYHSHQQLPAGILPMVPEVAQAVGVNQGLHTKEFNRVAPNPAKATVTAMIARELLYAGISPTADTILKNNNAAGHVLRGPFTRPSEQLNYLSRVQGLEVEYKDFPKNNKNEFVSLINCSSQPPLISHGIGKDVESCHDMAALNILKLLSELDQQNPEMPRTGNGPMSVCVKPEMESDPLLKPANSNTLGQTLDSTA
 | binds | hnRNPAB (40LoVE) (protein, UniProt A0A7M4CIF6 1-304) MSDTEQQCLETNAENGHEACDAEAAEDKAPTGQNGAEGEQINASKGEEDAGCVADISSPLTEGVKMFVGGLSWDTSKKDLKDYFAKFGEVSDCTIKMDPNTGRSRGFGFILFKDAESVDKVLEHKEHRLDGRLIDPKKAMAMKKDPIKKIFVGGLNPEAGEDQIREYFETFGEIEAIELPMDPKTNKRRGFVFITFKEEDPVKKILEKKFHNVSGSKCEIKIAQPKEVYQQQYGGRGGSFGGRGGRGGKGQGQNWNQGYNYWNQGYGNQGYGGYGQQGYGGYGNYDYSGYGYYGYGPGYDYSKN
binds | binds | Ilf3 (protein, UniProt Q91550 1-897) MRPMRIFLNDDRHVMAKHSVVYPTQEELEAVQNMVSHTERALKAVSDWIDQQEKDCSGEQEQPMAEETETTEEGKDSEMKTGENPTRTLRGVMRVGLVAKGLLLKGDLDLELVLLCRDKPTISLLKRVADNLVLQFETVSEDKYEVIQNIREALIVVKSTKEPPLTLNIRLTSPLVREEMEKLSAGETLTVSDPPDVLDRHKCLAALASLRHAKWFQARANGLKSCVIVIRVLRDLCTRVPTWEPLRGWPLELLCEKAIGTANRPMGAGEALRRVLECLSSGILMPDGSGLYDPCEKDASDALEHLERQQREDITQSAQHALRLAAFGQLHKVLGMDPLPSKMPKKTKVETPVIDYTVQIPPSTTYAMPPLKRPIEEDGDDKSPSKKKKKIQKKDEKSEPPQVMNALMRLNQLKPGLQYKLISQTGPVHAPVFTMSVEVDDKTFEASGPSKKTAKLHVAVKVLQDMGLPTGMEEKEEGTDESEQKPVVQTPAQPDDSAEVDSAALDQAESAKQQGPILTKHGKNPVMELNEKRRGLKYELISETGGSHDKRFVMEVEVDGVKFQGSGSNKKVAKAYAALSALEKLFPDYTMYTEAPKKKRPPMMPRGGPKFAGKHNQGFGMMYSEVPPPQAMRGRGRGGMNRGRGRGRGGFGGGYMNSGGYGGGYGGNYNYQTSATAGYSQFYSNGGASGNAGGGGAGTGGYSSYYQGDSYSAPTPPKPFVNKKPPPPQQQQQQQPPPQHASNPPKPSYNQGYQGHQGGQQQQQQQQQQQTYNQNQYSNYGPPQKQKGGYNQGAQGAGSGGSYNYSNSYTGGTAPLGTAVERVQEGEAAALTQRQALVTTQAHTPAMVEPAVLRRTKVTRSLITIKVPPDRTTVALQIITSSLREELGVTAGIQNTT
binds | binds | Ddx1 (protein, UniProt A2VD92 1-740) MAAFSEMGVMPEIAQAVEEMDWLLPTDIQAESIPLILGGGDVLMAAETGSGKTGAFSIPVIQIVYETLKDQQEGKKGKASVKTGSTVLNKWQMNPYDRGSAFAIGSDGLCCQSREIKEWHGCRSTRGVNKGKYYYEVSCHDQGLCRVGWSTLSASLDLGTDKFGFGFGGTGKKSHNKQFDNYGEEFTMHDTIGCYLDIDNSIVKFSKNGKDLGLAFQIPSHMKNQAFFTSCVLKNAELKFNFGEEDFKFPPKDGFVALSKAPDGHVVKSQNTGSAQVSQTKSLPNAPKALIIEPSRELAEQTLNNVKQFKKYVDNPKLRELLIIGGVAAKEQLTILENGVDIVVGTPGRIDDLISTGKLSLSQVRFLVLDEADGLLSQGYSDFINRIYGQIPQITSDGKRLQVIVCSATLHSFDVKKLSEKIMHFPTWVDLKGEDSVPETVHHVVVPVNPKKDKQWEKLAKNHIRTDGVHDKDNTRPGGNSAEVWSEAIKVLKGEYIVRAIKEHKMDQAIIFCRTKLDCDNMEQYFIQQGGGPDKKGHQFSCVCLHSDRKPPERKHNLERFKKCEVRFLICTDVAARGIDIRGVPYVINVTLPDEKQNYVHRIGRVGRAERMGLAISLVASEKEKVWYHVCSSRGKGCYNTRLKEDGGCTIWYNEMQLLSEIEEHLTCTISQVEPDIKVPLDDFDGKVVYGQRRATGGGLYKGHVDILAPTVQELASLEKEAQTSFLHLGYLSNQLFRSF
binds | binds | Ddx5 (protein, UniProt Q63ZR1 1-608) MPGFNDRDRGRDRGFGGGPRFGGNRGGTSGKYGNPGERLMKKKWNLDELPKFEKNFYQEHPDVVRRTPQECDQYRRSKEITVRGINCPKPILNFNEASFPANVMEAIKRQNFTEPTPIQGQGWPVALSGLDMVGVAMTGSGKTLSYLLPGIVHINHQPFLQRGDGPILLVLAPTRELAQQVQQVAAEYGRACRLRSTCIYGGAPKGPQIRDLERGVEICIATPGRLIDFLEAGKTNLNRCTYLVLDEADRMLDMGFEPQIRKIVDQIRPDRQTLMWSATWPKEVRQLAEDFLRDYVHINIGALELSANHNILQIVDVCNDGEKDDKLVRLMEEIMSEKENKTIVFVETKRRCDDLTRRLRRDGWPAMGIHGDKSQQERDWVLNEFKHGKSPILIATDVASRGLDVEDVKFVINYDYPNSSEDYIHRIGRTARSSKTGTAYTFFTPGNIKQVNDLISVLREANQAINPKLLQLVEDRGRFRGRGGMNDRRDRFSSGKRGGWDRENYDRGFGGKRDFGNKSQNGFGNKSQNGFGAQNYNGNFNSYGSNVQSGFRAGAQNGTYQNGYSTQQTGYSAPPMQNGMTQQAYTYPTATATAPAVIGYPMPTSYPQ

Results are given in words; binding and its absence hold for the method and conditions named. Binding seen in cells or lysates may run through a third protein. These calls come from enrichment with a bait or labelling near it, and not all partners need be listed.
